Laboratory results taken from patent US7304053B2, “Substituted heterocyclic compounds for treating multidrug resistance” (H. Lee Moffitt Cancer Center & Research Institute, Inc., priority 2000, dated 2007).
The name of at least one read-out is uncertain.

Each compound was assayed on NIH-MDR1-G185 cells (assay: Fluorescent substrate (BODIPY-FL Taxol) accumulation assay). Settings: BODIPY-FL Taxol 500 nM, 40 min at 37° C; MDR modulator final concentration 10 micromolar; fluorescence in presence / absence of modulator.
Format: cell-based
With O=C(CN1CCN(C[C@@H](O)COc2cccc3ncccc23)CC1)NC(CCCc1ccccc1)CCCc1ccccc1 [Compound 7, 1-{(R)-1-[2-Hydroxy-3-(quinolin-5-yloxy)-propyl]}-4-(carboxylmethyl) piperazine [4-phenyl-1-(3-phenyl-propyl)-butyl]-amide] the “Accumulation Index” value was 10. For O=C(CC(=O)N1CCN(C[C@@H](O)COc2cccc3ncccc23)CC1)NC(CCCc1ccccc1)CCCc1ccccc1 [Compound 39, 3-{4-[2-(R)-Hydroxy-3-(quinolin-5-yloxy)-propyl]-piperazin-1-yl}-3-oxopropionic acid [4-phenyl-1-(3-phenyl-propyl)-butyl]-amide], the “Accumulation Index” value was 9. In the case of O=C(CN1CCN(C[C@@H](O)COc2ccnc3ccccc23)CC1)NC(CCCc1ccccc1)CCCc1ccccc1 [Compound 9, 1-{(R)-1-[2-Hydroxy-3-(quinolin-4-yloxy)-propyl]}-4-(carboxylmethyl) piperazine [4-phenyl-1-(3-phenyl-propyl)-butyl]-amide], the “Accumulation Index” value is reported as 8. With O=C(CN1CCN(C[C@@H](O)COc2cccc3ncccc23)CC1)N1CCN(C(c2ccccc2)c2ccccc2)CC1 [Compound 12, 1-{(R)-1-[2-Hydroxy-3-(quinolin-5-yloxy)-propyl]}-4-(carboxylmethyl) piperazine (4-benzhydrylpiperazine-1-yl)amide] the “Accumulation Index” value was 7.
